# Experimental data: US20220023312A1, “METHODS AND SYSTEMS FOR DETECTING PSYCHOTIC DISORDERS ASSOCIATED WITH SEROTONIN RECEPTOR DEFICIENCIES” (ARIZONA BOARD OF REGENTS ON BEHALF OF THE UNIVERSITY OF …, priority 2016, published 2022)
# For at least one compound, name, drawing or mass did not settle the structure.
# Test system: Egr3-deficient mice and wild type mice
# Assay: EEG/EMG recording of wake and sleep after clozapine administration in Egr3-deficient and wild type mice
# Format: in vivo
structure (smiles),measurement,setting,value
CN1CCN(C2=Nc3cc(Cl)ccc3Nc3ccccc32)CC1 [clozapine],"pattern of EEG response to clozapine, Egr3 KO mice vs. wild type mice","4 hour recording after high dose clozapine, FIG. 1",marked difference in the pattern of response
same,waking EEG (SWA; 1-4 Hz),"during the 2 hr interval after clozapine administration, FIG. 5C",slowing of the waking EEG
